Measurements published in publication PMC7819943, “Rice protein-binding microarrays: a tool to detect cis-acting elements near promoter regions in rice”.
The list shows a part of the results.

Chains of the proteins cited; added tags and fusions are not shown.
UniProt Q0JBA9, entry or part of it: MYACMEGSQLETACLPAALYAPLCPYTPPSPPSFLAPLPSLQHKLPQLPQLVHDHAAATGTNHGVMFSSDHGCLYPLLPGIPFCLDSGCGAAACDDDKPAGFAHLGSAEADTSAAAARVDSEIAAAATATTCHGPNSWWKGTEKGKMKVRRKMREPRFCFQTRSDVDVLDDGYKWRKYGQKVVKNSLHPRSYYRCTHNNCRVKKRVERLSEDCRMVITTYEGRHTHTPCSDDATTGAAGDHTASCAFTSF

The sequences below were run against OsWRKY34 (Oryza sativa, UniProt Q0JBA9 1-250) (assay: protein-binding microarray (RPBM); PBS, 2% BSA, 51.3 ng/ul salmon testes DNA, 50 uM zinc acetate, 200 nM TF, 25 C, 1 h; high values mean tight binding). Details: protein: recombinant; tags: N-terminal polyhistidine and DsRed monomer fusion (pET32a); label: CyDye5-dUTP incorporated in the synthesized complementary strand; 3' TTTTT single-stranded linker to array surface; dsDNA, one strand shown.
In short: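 Binding signal is defined as the fluorescence intensity of each feature in arbitrary units, read on an Axon 4000B scanner. Transcription factors with N-terminal polyhistidine and DsRed fusions came from E. coli BL21-CodonPlus and were purified on Ni–NTA. They were incubated at 200 nM for 1 h at 25 °C on a custom Agilent array that had been made double-stranded with Cy5-dUTP, with 50 µM zinc acetate present, and the array was washed.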
“TGTTTTGACTTTTTGACCCACCCAAACTCATTCTCACCTCCGGAGTCACCTAGTGCAG” was tested, and the binding signal was 11500 fluorescence intensity (a.u.).
In the case of “TTTCACTCTCGCGAACCTTCCACACACAGACTAGGAGCTTCGGAGTCACCTAGTGCAG”, the binding signal is reported as 8340 fluorescence intensity (a.u.).
“CCTCTGCACTCAGATTTGCAAGGTGGTGTTATTACCCATACGGAGTCACCTAGTGCAG” was tested, and the binding signal was 8100 fluorescence intensity (a.u.).
“TAGCCATCTCAGCCAATTGTGTTTTTTCCCTTATGGTTGACGGAGTCACCTAGTGCAG” was tested, and the binding signal was 8470 fluorescence intensity (a.u.).
For “TTCACGGTGTTTCGACCTCTGTGTTCTGGTAGCTTTTCTTCGGAGTCACCTAGTGCAG”, the binding signal was 9940 fluorescence intensity (a.u.).
In the case of “TTCCTTAAGGCTCTGAAGCATATCTCCAGCTGTTACAGCACGGAGTCACCTAGTGCAG”, the binding signal is reported as 8360 fluorescence intensity (a.u.).
In the case of “AGCATTTCCATCCACCACACGCGTACGTCCCCGTCACGCGCGGAGTCACCTAGTGCAG”, the binding signal is reported as 8940 fluorescence intensity (a.u.).
With “TCTGGTCCGTCCAACATCTATTTGTCTCTTTGTAACCACACGGAGTCACCTAGTGCAG” the binding signal was 10600 fluorescence intensity (a.u.).
With “ATGCCGTTGACTTTTTAAAATATATTTGACCATTTCCTATCGGAGTCACCTAGTGCAG” the binding signal was 21700 fluorescence intensity (a.u.).
In the case of “TCAGCTACTCTACTCTCCCACTTGCTTCCGCTGCTTCTCCCGGAGTCACCTAGTGCAG”, the binding signal is reported as 9460 fluorescence intensity (a.u.).
With “GGCAGCGACACCAACTCTCTAGCCGCACGCTGCACTCGCGCGGAGTCACCTAGTGCAG” the binding signal was 10100 fluorescence intensity (a.u.).
For “GATGTCCGGTTTTGTGGTTTAGGGTCATGGATTAGATTTCCGGAGTCACCTAGTGCAG”, the binding signal was 8760 fluorescence intensity (a.u.).
For “GCCCACACCTCCCCATCAACGCTCGCGCTGTTCCCGCCTCCGGAGTCACCTAGTGCAG”, the binding signal was 10300 fluorescence intensity (a.u.).
With “CACTACATTGGCCTGCATCTTCAACACAGCAACGTTTCACCGGAGTCACCTAGTGCAG” the binding signal was 8190 fluorescence intensity (a.u.).
“ACACTCGCTAACTGCTCTCTCTCTCTCTCGTTCATTCCTTCGGAGTCACCTAGTGCAG” was tested, and the binding signal was 14700 fluorescence intensity (a.u.).
For “TGGGAAGTACATATGTAATGTTGTTTATTTATTTTTGTTTCGGAGTCACCTAGTGCAG”, the binding signal was 9860 fluorescence intensity (a.u.).
For “AAGACTATTTTATTTTCTTAGTTTTTTTTACTGTGTTTCTCGGAGTCACCTAGTGCAG”, the binding signal was 13300 fluorescence intensity (a.u.).
For “ATTCTCTCTTTTGCTCGCTTTGTTCCCTTTTCTTTCTTTTCGGAGTCACCTAGTGCAG”, the binding signal was 8700 fluorescence intensity (a.u.).
“CTCGTCATATCCCATTGCCAACCTAGCACAAAACGACATTCGGAGTCACCTAGTGCAG” was tested, and the binding signal was 9240 fluorescence intensity (a.u.).
In the case of “TGCTTCATATCCCTGGTTCCCCATACCCTAGCCAATCCCACGGAGTCACCTAGTGCAG”, the binding signal is reported as 8200 fluorescence intensity (a.u.).
With “GCTATATACTATTTCTCCAATTTTTCCCACTGGGTTTTTACGGAGTCACCTAGTGCAG” the binding signal was 10500 fluorescence intensity (a.u.).
In the case of “CTCCCACCACCGCCGCCGCCGAACCCTAGTTCCTCTTTGCCGGAGTCACCTAGTGCAG”, the binding signal is reported as 9210 fluorescence intensity (a.u.).
With “GATCACCTCTGTCGAACTCAAACCCTCAGCTGTGACGAGTCGGAGTCACCTAGTGCAG” the binding signal was 10000 fluorescence intensity (a.u.).
With “TACGTTTGGAACTGTGTATTACTTGTCGTTTTGTGTACCCCGGAGTCACCTAGTGCAG” the binding signal was 11300 fluorescence intensity (a.u.).
“TAGTTTTTTCAGTTGCATTTTTTTAACTTAGCCATTGCATCGGAGTCACCTAGTGCAG” was tested, and the binding signal was 8150 fluorescence intensity (a.u.).
“CTCCAAGCGCCCGCGCGCGCCACCAGCTGTCGCTGCCTCTCGGAGTCACCTAGTGCAG” was tested, and the binding signal was 10300 fluorescence intensity (a.u.).
In the case of “ACGCCACTCGCTCGGATCCAGGGCCCCACCTGTCATTAGCCGGAGTCACCTAGTGCAG”, the binding signal is reported as 8430 fluorescence intensity (a.u.).
“ATCGAGGTCCCCTGCCCGCACACTTCGCGTCAGCTGCTGCCGGAGTCACCTAGTGCAG” was tested, and the binding signal was 9000 fluorescence intensity (a.u.).
For “TATTCAGGGGCAAACAATCCAGAGTTCCAGTCTCGGCCTTCGGAGTCACCTAGTGCAG”, the binding signal was 8090 fluorescence intensity (a.u.).
For “TCTGACCGTTGGATTGCCCTGATCAGGTGGCTGAGATTTCCGGAGTCACCTAGTGCAG”, the binding signal was 8240 fluorescence intensity (a.u.).
In the case of “GGGCCTAAGTTTCTCTCTGCTGGGCTATTCTCTGGTTGTACGGAGTCACCTAGTGCAG”, the binding signal is reported as 8780 fluorescence intensity (a.u.).
In the case of “TCACATTCTCTTGTCTCTTGTACTCACCGCATCCTGCTTGCGGAGTCACCTAGTGCAG”, the binding signal is reported as 11200 fluorescence intensity (a.u.).
For “ATTTTGCTTTGATTATTTTTACCCTTTACTAATTTTACATCGGAGTCACCTAGTGCAG”, the binding signal was 8520 fluorescence intensity (a.u.).
With “TGTGACTAATCAGTTGTTTGTATCTTTAAGGTTTGAGAAGCGGAGTCACCTAGTGCAG” the binding signal was 9190 fluorescence intensity (a.u.).
With “TCGTCGTTGTTTCATTTGTTCTTGCAGGTCGCTGAGCGGCCGGAGTCACCTAGTGCAG” the binding signal was 9120 fluorescence intensity (a.u.).
In the case of “CCGTCTACCATGGTACCACCGCGCGCGTCACGTTGCAACGCGGAGTCACCTAGTGCAG”, the binding signal is reported as 10100 fluorescence intensity (a.u.).
In the case of “GTCTCTTCTCTCAACCGCGACCGCATCTCGCCGCCCGCCGCGGAGTCACCTAGTGCAG”, the binding signal is reported as 15400 fluorescence intensity (a.u.).
With “CTCCCAATGCGCCCAAACCACCGTACCAATCCCTCCTCCGCGGAGTCACCTAGTGCAG” the binding signal was 9150 fluorescence intensity (a.u.).
“TTTTTTTTTTCTTTCTTTTTTGCGTTTGCATGTGATGGAACGGAGTCACCTAGTGCAG” was tested, and the binding signal was 9530 fluorescence intensity (a.u.).
With “ACGGCCTCTACATCTAACCGGATATATGCAACCTTTATAACGGAGTCACCTAGTGCAG” the binding signal was 9760 fluorescence intensity (a.u.).
In the case of “CTACACCCCTGCTACTGCTGTTATTGTGGGCTACTTGTTACGGAGTCACCTAGTGCAG”, the binding signal is reported as 10800 fluorescence intensity (a.u.).
With “CGCACTTTTCCGCCATTTGTCCGACTCCACCCGCGGCTTACGGAGTCACCTAGTGCAG” the binding signal was 14200 fluorescence intensity (a.u.).
